These results are taken from PMC11832342.

No constants are given. Whether binding was seen depends on the method and setting. In cells and extracts the contact can be indirect. Some binding calls cover weakened binding; strength is not graded here. Tags and fused reporters may be left off the sequences shown.

This assay addresses T1, AGO3 fused to split YFP (BiFC) (Arabidopsis) (UniProt Q9SHF2).
T1 sequence: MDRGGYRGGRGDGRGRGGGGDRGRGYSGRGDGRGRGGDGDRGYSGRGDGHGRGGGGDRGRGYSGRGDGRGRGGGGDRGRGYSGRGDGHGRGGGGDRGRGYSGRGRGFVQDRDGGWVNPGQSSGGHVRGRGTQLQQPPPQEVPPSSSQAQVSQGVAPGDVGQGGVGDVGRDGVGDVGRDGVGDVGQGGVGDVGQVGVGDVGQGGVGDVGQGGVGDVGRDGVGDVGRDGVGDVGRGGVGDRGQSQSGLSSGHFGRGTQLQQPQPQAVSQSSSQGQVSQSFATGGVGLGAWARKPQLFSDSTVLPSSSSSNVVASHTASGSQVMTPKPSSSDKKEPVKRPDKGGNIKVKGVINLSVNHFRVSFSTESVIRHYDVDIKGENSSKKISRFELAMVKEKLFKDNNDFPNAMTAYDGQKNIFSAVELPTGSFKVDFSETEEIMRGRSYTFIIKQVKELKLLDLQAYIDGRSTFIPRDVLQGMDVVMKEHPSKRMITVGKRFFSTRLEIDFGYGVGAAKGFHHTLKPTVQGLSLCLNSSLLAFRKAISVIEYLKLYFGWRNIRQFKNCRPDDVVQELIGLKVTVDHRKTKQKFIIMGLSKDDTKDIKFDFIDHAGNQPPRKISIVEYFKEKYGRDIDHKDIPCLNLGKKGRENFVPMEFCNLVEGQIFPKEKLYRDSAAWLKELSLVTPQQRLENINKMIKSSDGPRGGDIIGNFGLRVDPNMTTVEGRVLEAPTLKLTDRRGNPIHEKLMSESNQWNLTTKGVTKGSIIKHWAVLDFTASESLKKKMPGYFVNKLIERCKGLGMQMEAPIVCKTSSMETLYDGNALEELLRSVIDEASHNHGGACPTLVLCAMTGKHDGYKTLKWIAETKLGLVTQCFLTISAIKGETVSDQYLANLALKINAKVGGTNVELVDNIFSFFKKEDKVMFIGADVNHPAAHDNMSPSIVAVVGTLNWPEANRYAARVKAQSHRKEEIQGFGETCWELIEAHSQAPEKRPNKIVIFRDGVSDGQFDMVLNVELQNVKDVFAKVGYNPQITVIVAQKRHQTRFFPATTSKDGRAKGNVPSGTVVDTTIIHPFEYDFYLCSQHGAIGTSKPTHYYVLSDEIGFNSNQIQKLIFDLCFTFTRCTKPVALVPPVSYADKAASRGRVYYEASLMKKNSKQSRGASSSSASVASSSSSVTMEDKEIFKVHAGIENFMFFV
Put plainly: split reporter; BiFC with split YFP from pBiFC-2in1 vectors in Agrobacterium-infiltrated Nicotiana benthamiana leaves; imaged 3 days after infiltration by confocal microscopy; p35S::RFP as transformation control.

B1: NHP2 fused to split YFP (BiFC) (protein, UniProt Q9LEY9 1-156)
chain: MGSDTEAEKSIQKEKKKYAITLAPIAKPLAGKKLQKRTFKLIQKAAGKKCLKRGVKEVVKSIRRGQKGLCVIAGNISPIDVITHLPILCEEAGVPYVYVPSKEDLAQAGATKRPTCCVLVMLKPAKGDLTAEELAKLKTDYEQVSDDIKELATSVI
As for B1, the binding result is “binds”.
